From US20250296909A1, “NOVEL BENZENE DERIVATIVE AND IMMUNOSUPPRESSION-RELATED USE THEREOF” (PROVIBIO CO., LTD., priority 2021, published 2025)
At least one structure is not confirmed: it was looked up by name or label, or the drawing left a doubt.

Tested on: spleen T cells
Test: Cytokine secretion by anti-CD3/CD28-activated T cells (Cytometric Bead Array)
Assay type: cell-based, C57BL/6 mice
Details: 30 μM
Method: To confirm the effect of compounds of the present invention on the secretion of cytokines by T cells, the following experiment was conducted.
Spleens were harvested and minced from C57BL/6 mice at 7 weeks of age, and single cells were isolated using a strainer (40 μm pore size, SPL). Red blood cells were removed using ACK (Ammonium-Chloride-Potassium) lysis buffer to isolate only leukocytes. These were then reacted with 10 v/v % CD90.2 microbeads (130-121-278, Miltenyi Biotech.) at 4° C. for 20 minutes, resulting in the isolation of spleen T cells from magnetic-based purification. The T cells were cultured in a 96-well plate at an amount of 2×10^5 cells/well. For T cell activation, each well was treated with anti-CD3/CD28 antibodies at a concentration of 1 μg/mL. Subsequently, Vehicle (DMSO) and compounds (Compound 14, Compound 19, Compound 26, Compound 31, Compound 35, Compound 40, Compound 41, Compound 56, Compound 69, Compound 75) at a concentration of 30 μM were treated in each well, and it was cultured at 37° C. in a 5% CO2 incubator. After 24 and 72 hours, the T cell culture medium was taken, and centrifugation was performed at 13,000 rpm for 10 minutes to obtain the supernatant.
To measure the concentration of cytokines present in the T cell culture medium, Mouse Th1/Th2/Th17 Cytokine CBA Kit (Cytometric Bead Array kit) 560485 from BD Science was utilized for flow cytometry analysis. The secretion levels of IL-2 at 24 hours after each drug treatment, and IFN-γ, TNF-α, and IL-17A at 72 hours were measured after each drug treatment.

CCCCCCCCCCCCNC(=O)c1cccnn1 [Compound 31]
significant decrease: secretion of IL-2 (24 hours after treatment, FIG. 3) | secretion of IFN-γ (72 hours after treatment) | secretion of IL-17A (72 hours after treatment) | secretion of TNF-α (72 hours after treatment)
